Source: publication PMC6915745, “TRIB3 supports breast cancer stemness by suppressing FOXO1 degradation and enhancing SOX2 transcription” (Nature Communications, 2019)
These are yes or no findings as the source states them, for the method shown. Binding seen in cells or lysates may run through a third protein. Some binding calls cover weakened binding; strength is not graded here.

The chains behind the UniProt entries cited, without tags or fusion partners. Where a name states a change or a piece, a line headed by the entry shows the natural chain unless it says otherwise. A line that says so, or that is headed by a name, gives the form on record, which may keep a tag or linker.
UniProt Q96RU7: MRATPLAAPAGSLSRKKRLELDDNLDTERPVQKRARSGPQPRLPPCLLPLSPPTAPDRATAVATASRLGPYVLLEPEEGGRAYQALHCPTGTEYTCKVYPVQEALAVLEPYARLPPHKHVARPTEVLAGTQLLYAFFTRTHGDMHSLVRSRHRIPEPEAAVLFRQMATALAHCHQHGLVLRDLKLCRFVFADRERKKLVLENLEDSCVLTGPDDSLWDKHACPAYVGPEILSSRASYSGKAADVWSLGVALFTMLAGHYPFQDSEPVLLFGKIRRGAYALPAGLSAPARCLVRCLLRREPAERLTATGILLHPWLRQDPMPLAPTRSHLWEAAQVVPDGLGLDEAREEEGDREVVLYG
UniProt P31749: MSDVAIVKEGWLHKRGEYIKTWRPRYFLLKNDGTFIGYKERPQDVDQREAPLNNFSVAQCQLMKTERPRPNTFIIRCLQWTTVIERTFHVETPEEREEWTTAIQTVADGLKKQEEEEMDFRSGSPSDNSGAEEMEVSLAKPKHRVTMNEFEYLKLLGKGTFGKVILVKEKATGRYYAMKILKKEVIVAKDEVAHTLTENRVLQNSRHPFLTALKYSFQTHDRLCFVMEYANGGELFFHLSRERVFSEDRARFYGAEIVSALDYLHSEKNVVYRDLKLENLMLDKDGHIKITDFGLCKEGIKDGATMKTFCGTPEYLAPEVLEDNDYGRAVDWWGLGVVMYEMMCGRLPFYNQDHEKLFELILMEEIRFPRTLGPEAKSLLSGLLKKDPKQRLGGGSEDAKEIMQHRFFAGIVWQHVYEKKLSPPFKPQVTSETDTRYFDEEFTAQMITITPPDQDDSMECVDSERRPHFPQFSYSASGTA
AKT1-Myc △WX mutant (P31749, form named): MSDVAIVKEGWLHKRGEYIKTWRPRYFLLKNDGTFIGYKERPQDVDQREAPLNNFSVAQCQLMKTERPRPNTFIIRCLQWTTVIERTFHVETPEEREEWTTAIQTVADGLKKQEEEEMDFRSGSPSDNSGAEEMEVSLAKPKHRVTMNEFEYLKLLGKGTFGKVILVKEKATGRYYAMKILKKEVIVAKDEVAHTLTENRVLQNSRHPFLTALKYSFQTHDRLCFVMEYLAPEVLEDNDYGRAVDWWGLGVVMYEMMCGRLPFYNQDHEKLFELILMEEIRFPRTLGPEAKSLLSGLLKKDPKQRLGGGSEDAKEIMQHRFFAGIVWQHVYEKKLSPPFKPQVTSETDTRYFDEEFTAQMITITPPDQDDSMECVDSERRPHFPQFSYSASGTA
UniProt Q12778: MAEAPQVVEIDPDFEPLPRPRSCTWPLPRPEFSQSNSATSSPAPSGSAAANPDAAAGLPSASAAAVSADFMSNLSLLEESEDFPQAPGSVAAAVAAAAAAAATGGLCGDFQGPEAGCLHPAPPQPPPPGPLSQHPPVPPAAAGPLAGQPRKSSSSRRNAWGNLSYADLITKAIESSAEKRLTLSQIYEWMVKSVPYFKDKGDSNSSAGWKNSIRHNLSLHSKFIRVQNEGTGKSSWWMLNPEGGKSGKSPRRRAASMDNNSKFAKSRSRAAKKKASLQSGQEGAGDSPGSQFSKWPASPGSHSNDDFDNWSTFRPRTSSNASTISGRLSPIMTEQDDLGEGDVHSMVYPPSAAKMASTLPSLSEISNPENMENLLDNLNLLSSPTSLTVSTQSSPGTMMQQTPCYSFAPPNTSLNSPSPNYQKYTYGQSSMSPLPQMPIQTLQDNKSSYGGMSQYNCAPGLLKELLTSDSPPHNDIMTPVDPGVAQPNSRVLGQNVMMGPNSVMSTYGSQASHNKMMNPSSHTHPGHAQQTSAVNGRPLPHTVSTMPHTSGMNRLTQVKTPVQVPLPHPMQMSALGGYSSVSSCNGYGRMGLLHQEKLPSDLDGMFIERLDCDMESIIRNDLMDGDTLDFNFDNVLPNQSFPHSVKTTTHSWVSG

Columns and labels:
[1] = biological target: Tribbles homolog 3 (TRIB3), endogenous in human breast cancer cells (human (endogenous in MCF7, MDA-MB-231, PDX BCCs)) (UniProt Q96RU7); assay: co-IP; endogenous AKT1 and TRIB3; cells not named
TRIB3-HA (human) = TRIB3-HA (human) (UniProt Q96RU7); assay: co-IP; HEK293T cells co-transfected with AKT1-Myc and TRIB3-HA constructs; cell extracts IP with an anti-HA Ab
[2] = biological target: AKT1, endogenous in human cells (human (endogenous in HMLE, MCF7, MDA-MB-231, PDX BCCs)) (UniProt P31749); assay: co-IP; HMLE cell extracts IP with an anti-AKT1 Ab, blotted with an anti-FOXO1 Ab, in the presence of the indicated concentration of the TRIB3-GST protein

Row | Substance | binding (TRIB3-HA (human)) | also measured
1 | AKT1, endogenous in human cells (from UniProt P31749 1-480) |  | binding [1]: binds
2 | AKT1-Myc △WX mutant (from UniProt P31749 1-480) | binds | 
3 | AKT1-Myc, full-length (FL amino acids 1–480) (from UniProt P31749 1-480) | binds | 
4 | Forkhead box O1 (FOXO1), endogenous in human cells (from UniProt Q12778 1-655) |  | binding [2]: binds
